Laboratory results: PubChem BioAssay AID743121 (NCATS, 2013)
Purpose: 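Knock-downs that sensitise breast cancer cells to camptothecin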 (primary screen). Cell system: MDA-MB-231 cells, a human breast cancer line. Reagent: single siRNA against human genes, 20 nM siRNA (0.8 pmol per well). Timing: 120 h (drug added 48 h after transfection, read 72 h later). Conditions: camptothecin 20 nM (about EC30) for 72 h; vehicle 0.1% DMSO in parallel plates. Detection: 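CellTiter-Glo ATP signal, scaled to control siRNA as percent viability; sensitisation given as log2 of untreated divided by camptothecin-treated viability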. Direction: log2 vehicle/camptothecin viability: higher = stronger sensitisation to camptothecin; viability with camptothecin: higher = more viable cells. Units: viability with camptothecin in % of control. Call rule: 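Active genes have an RSA gene-level p-value below 0.001, computed from the ratios of their separate siRNAs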.
Shown is an unselected part of about 26,000 reagents tested. Over the whole deposit, 167 (0.63%) were called active. 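Calls are per gene from RSA p-values that are not deposited; an individual active-marked siRNA can sensitise only weakly.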 Unmarked entries are inactive. Reagents against one gene are numbered here. Not all columns of the deposit are shown. No sequences are given here.

How did the screen score CD163 (GeneID 9332) #1?
log2 vehicle/camptothecin viability: -0.311; viability with camptothecin: 81

What is on record for CD163 (GeneID 9332) #2?
log2 vehicle/camptothecin viability: -0.48; viability with camptothecin: 55.1

For CD163 (GeneID 9332) #3, how do the results read?
log2 vehicle/camptothecin viability: -0.142; viability with camptothecin: 121

With CD163 (GeneID 9332) #4, what does the deposit list?
log2 vehicle/camptothecin viability: 0.137; viability with camptothecin: 85.3

Which result is listed for CENPF (GeneID 1063) #1?
log2 vehicle/camptothecin viability: 0.0902; viability with camptothecin: 96.8

For CENPF (GeneID 1063) #2, what was measured?
log2 vehicle/camptothecin viability: -0.544; viability with camptothecin: 90.1

For CENPF (GeneID 1063) #3, how do the results read?
log2 vehicle/camptothecin viability: -0.312; viability with camptothecin: 78.9

Which result is listed for CENPF (GeneID 1063) #4?
log2 vehicle/camptothecin viability: -0.48; viability with camptothecin: 82.4

What is on record for TMEM254 (GeneID 80195) #1?
log2 vehicle/camptothecin viability: -0.343; viability with camptothecin: 30.6

For TMEM254 (GeneID 80195) #2, what was measured?
log2 vehicle/camptothecin viability: 0.0111; viability with camptothecin: 103

For TMEM254 (GeneID 80195) #3, what was measured?
log2 vehicle/camptothecin viability: 0.363; viability with camptothecin: 62.4

With TMEM254 (GeneID 80195) #4, how do the results read?
log2 vehicle/camptothecin viability: -0.604; viability with camptothecin: 40.5

With SSBP1 (GeneID 6742) #1, what does the deposit list?
log2 vehicle/camptothecin viability: -0.301; viability with camptothecin: 92.1

What is on record for SSBP1 (GeneID 6742) #2?
log2 vehicle/camptothecin viability: -0.0233; viability with camptothecin: 75

With SSBP1 (GeneID 6742) #3, what does the deposit list?
log2 vehicle/camptothecin viability: -0.312; viability with camptothecin: 119

What is on record for SSBP1 (GeneID 6742) #4?
log2 vehicle/camptothecin viability: -0.0422; viability with camptothecin: 92.1

What is on record for KIF3B (GeneID 9371) #1?
log2 vehicle/camptothecin viability: -0.685; viability with camptothecin: 97.4

Which result is listed for KIF3B (GeneID 9371) #2?
log2 vehicle/camptothecin viability: 0.0437; viability with camptothecin: 88.1

What did the screen give for KIF3B (GeneID 9371) #3?
log2 vehicle/camptothecin viability: -0.43; viability with camptothecin: 90.8

What did the screen give for KIF26A (GeneID 26153) #1?
log2 vehicle/camptothecin viability: 0.131; viability with camptothecin: 85.8

With KIF26A (GeneID 26153) #2, what was measured?
log2 vehicle/camptothecin viability: -0.28; viability with camptothecin: 90.1

What did the screen give for KIF26A (GeneID 26153) #3?
log2 vehicle/camptothecin viability: 0.0374; viability with camptothecin: 97

Which result is listed for KIF26A (GeneID 26153) #4?
log2 vehicle/camptothecin viability: -0.0509; viability with camptothecin: 98.5

Which result is listed for SLC24A2 (GeneID 25769) #1?
log2 vehicle/camptothecin viability: -0.00374; viability with camptothecin: 89

For SLC24A2 (GeneID 25769) #2, what was measured?
log2 vehicle/camptothecin viability: 0.114; viability with camptothecin: 85.7

For SLC24A2 (GeneID 25769) #3, what does the deposit list?
log2 vehicle/camptothecin viability: 0.0997; viability with camptothecin: 39.3

With SLC24A2 (GeneID 25769) #4, what was measured?
log2 vehicle/camptothecin viability: -0.554; viability with camptothecin: 81.5

What is on record for KIDINS220 (GeneID 57498) #1?
log2 vehicle/camptothecin viability: -0.177; viability with camptothecin: 130

Which result is listed for KIDINS220 (GeneID 57498) #2?
log2 vehicle/camptothecin viability: -0.15; viability with camptothecin: 35.7

With KIDINS220 (GeneID 57498) #3, what was measured?
log2 vehicle/camptothecin viability: -0.0342; viability with camptothecin: 104

Which result is listed for KIDINS220 (GeneID 57498) #4?
log2 vehicle/camptothecin viability: -0.329; viability with camptothecin: 115

How did the screen score RAPGEFL1 (GeneID 51195) #1?
log2 vehicle/camptothecin viability: -0.855; viability with camptothecin: 51.5

For RAPGEFL1 (GeneID 51195) #2, how do the results read?
log2 vehicle/camptothecin viability: -0.333; viability with camptothecin: 92.3

What did the screen give for RAPGEFL1 (GeneID 51195) #3?
log2 vehicle/camptothecin viability: -0.0578; viability with camptothecin: 59.5

With RAPGEFL1 (GeneID 51195) #4, what does the deposit list?
log2 vehicle/camptothecin viability: -0.0537; viability with camptothecin: 38.4

As entered above.
KIF26A (GeneID 26153) #2, viability with camptothecin = 90.1
KIDINS220 (GeneID 57498) #1, log2 vehicle/camptothecin viability = -0.177
